# In patent US20040197338A1, “Respiratory syncytial virus” (priority 2001, published 2004):
# The chains behind the UniProt entries cited, without tags or fusion partners.
# UniProt P03421: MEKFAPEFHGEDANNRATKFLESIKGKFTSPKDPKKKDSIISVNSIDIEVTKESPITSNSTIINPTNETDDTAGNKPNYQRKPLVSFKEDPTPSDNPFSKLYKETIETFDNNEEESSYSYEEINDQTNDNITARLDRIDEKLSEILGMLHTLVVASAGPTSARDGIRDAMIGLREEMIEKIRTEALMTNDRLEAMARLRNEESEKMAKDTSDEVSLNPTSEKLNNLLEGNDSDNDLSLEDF
# UniProt P03418: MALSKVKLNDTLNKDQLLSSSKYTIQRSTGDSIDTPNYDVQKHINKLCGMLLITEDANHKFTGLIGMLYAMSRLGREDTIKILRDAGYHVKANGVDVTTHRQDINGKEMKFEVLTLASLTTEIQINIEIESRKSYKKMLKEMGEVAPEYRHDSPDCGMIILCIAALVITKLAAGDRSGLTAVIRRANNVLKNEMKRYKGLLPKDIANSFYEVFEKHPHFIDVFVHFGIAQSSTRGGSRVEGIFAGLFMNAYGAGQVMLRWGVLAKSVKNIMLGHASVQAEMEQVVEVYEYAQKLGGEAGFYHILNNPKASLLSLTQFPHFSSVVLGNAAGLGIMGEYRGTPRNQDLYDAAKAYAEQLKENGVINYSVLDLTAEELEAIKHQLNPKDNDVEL
# These are yes or no findings as the source states them, for the method shown. Binding seen in cells or lysates may run through a third protein. Some binding calls cover weakened binding; strength is not graded here.
# Target: RSV P protein (phosphoprotein from RSV A2 infected CV-1 cells) (respiratory syncytial virus, A2 strain) (UniProt P03421)
# Assay: co-immunoprecipitation (RIPA) from RSV infected cell lysates (FIG. 2)
substance,measurement,value
RSV N protein (nucleocapsid protein from RSV A2 infected CV-1 cells) (from UniProt P03418 1-391),binding,binds
